We go through seven compounds from the odorant receptor screen of Mainland et al. (2015).

The structures appear in SMILES notation. Values joined by “and” are separate entries in the source; they are usually repeats but may differ in a detail not shown here. Identical values can stand only once. The list shows a part of the results. Each value is one well over the wells without odorant, computed here; the data are noisy.

Test systems include OR14L1 clone 1029; OR1A1 P285S clone 1531; OR1A1 R128H clone 1528; OR1A1 V233M clone 1287; OR1A1 V233M clone 1530; OR1A1 clone 1529; OR1A2 clone 1158; OR1C1 clone 1044; OR1D2 clone 1376; OR1D5 clone 1289; OR1D5 clone 1692; OR1E1 clone 1257; OR1E1 clone 1546; OR1E2 C27R clone 1447; OR1E2 clone 1517; OR1F1 F75S clone 1281; OR1F12 clone 1694; OR1G1 clone 1488; OR1J1 clone 1696.
What all share (assay): odorant receptor activation (CRE luciferase / Renilla) (fold of no-odor wells); higher = more activation
What all share (settings): 100 µM

In assay [1] the test system is OR1I1 P139R/Y252S clone 1468.

Consider `CC1CCC(C(C)C)C(O)C1` (single isomer, unassigned; (-)) [(-)-menthol], for which the odorant receptor activation in the assay with OR14L1 clone 1029 is 3.82; with OR1A1 P285S clone 1531, 2.62; in the assay on OR1A1 R128H clone 1528, 3.81; with OR1A1 V233M clone 1287 it was 4.05 and 9.72; in the assay with OR1A1 V233M clone 1530 it was 2.27; with OR1A1 clone 1529, 2.69. For the same compound, the odorant receptor activation in the assay with OR1A2 clone 1158 turned out to be 0.823; in the assay on OR1C1 clone 1044 it was 4.02; in the assay on OR1D2 clone 1376, 0.336; in the assay on OR1D5 clone 1289 it was 0.696; with OR1D5 clone 1692, 0.89; in the assay with OR1E1 clone 1257, 0.982. In addition, the odorant receptor activation with OR1E1 clone 1546 was 1.36; in the assay on OR1E2 C27R clone 1447 it was 1.02; with OR1E2 clone 1517, 4.74; with OR1F1 F75S clone 1281 it was 0.692; in the assay with OR1F12 clone 1694 it was 0.908; with OR1G1 clone 1488 it was 2.64. For the same compound, the odorant receptor activation in assay [1] was 4.98; with OR1J1 clone 1696, 0.837.

For `CCCC(=O)O` [butyric acid], the odorant receptor activation with OR14L1 clone 1029 was 0.99; with OR1A1 P285S clone 1531, 1.28; with OR1A1 R128H clone 1528 it was 0.91; in the assay with OR1A1 V233M clone 1287 it was 2.36 and 0.843; with OR1A1 V233M clone 1530, 1.04; in the assay on OR1A1 clone 1529 it was 0.948. Further, the odorant receptor activation was 0.928 in the assay with OR1A2 clone 1158; 1.04 with OR1C1 clone 1044; 0.195 in the assay with OR1D2 clone 1376; 0.887 in the assay with OR1D5 clone 1289; 0.838 in the assay with OR1D5 clone 1692; 0.99 with OR1E1 clone 1257. Also, the odorant receptor activation in the assay on OR1E1 clone 1546 is 0.773; with OR1E2 C27R clone 1447, 0.148; in the assay on OR1E2 clone 1517 it was 1.34; in the assay with OR1F1 F75S clone 1281 it was 1.03; in the assay with OR1F12 clone 1694, 1.16; in the assay on OR1G1 clone 1488, 1.08. For the same compound, the odorant receptor activation is 1.13 in assay [1] and 1.03 with OR1J1 clone 1696.

On to `CCCCCCOC(=O)CCC` [hexyl butyrate], for which the odorant receptor activation with OR14L1 clone 1029 is 0.756; with OR1A1 P285S clone 1531, 0.938 and 1.04; with OR1A1 R128H clone 1528, 1.01 and 1.1; with OR1A1 V233M clone 1287, 1.16 and 1.05 and 1.04; in the assay with OR1A1 V233M clone 1530 it was 1.49 and 1.21; with OR1A1 clone 1529 it was 0.921 and 1.12. The odorant receptor activation with OR1A2 clone 1158 is 0.815; in the assay on OR1C1 clone 1044 it was 0.684; with OR1D2 clone 1376 it was 1.44; with OR1D5 clone 1289, 0.82 and 0.902; in the assay with OR1D5 clone 1692, 0.809; in the assay on OR1E1 clone 1257 it was 0.814 and 1.16. The odorant receptor activation in the assay with OR1E1 clone 1546 was 1.13 and 0.814; in the assay with OR1E2 C27R clone 1447 it was 0.707; with OR1E2 clone 1517 it was 0.823 and 0.831; in the assay with OR1F1 F75S clone 1281, 1.09 and 0.809; in the assay on OR1F12 clone 1694 it was 0.621; with OR1G1 clone 1488, 0.913 and 0.826. For the same compound, the odorant receptor activation in assay [1] was 1.05 and 1.09; in the assay with OR1J1 clone 1696, 0.885.

For the compound `CC(=O)C(C)=O` [diacetyl], the odorant receptor activation in the assay on OR14L1 clone 1029 is 1.11; in the assay on OR1A1 P285S clone 1531 it was 1.36; with OR1A1 R128H clone 1528 it was 1.98; with OR1A1 V233M clone 1287, 2.38 and 0.921; in the assay on OR1A1 V233M clone 1530, 1.44; in the assay on OR1A1 clone 1529, 1.6. Further, the odorant receptor activation was 1.44 in the assay on OR1A2 clone 1158; 1.09 in the assay with OR1C1 clone 1044; 1.08 with OR1D2 clone 1376; 1.37 in the assay with OR1D5 clone 1289; 0.855 in the assay with OR1D5 clone 1692; 1.2 in the assay on OR1E1 clone 1257. Further, the odorant receptor activation is 1.59 in the assay with OR1E1 clone 1546; 1.08 with OR1E2 C27R clone 1447; 1.57 in the assay on OR1E2 clone 1517; 1.3 in the assay on OR1F1 F75S clone 1281; 0.647 in the assay on OR1F12 clone 1694; 1.16 with OR1G1 clone 1488. The odorant receptor activation in assay [1] came to 1.19; in the assay with OR1J1 clone 1696, 0.704.

Regarding `CCCCCCCCCC=O` [decyl aldehyde], the odorant receptor activation with OR14L1 clone 1029 is 1.62; with OR1A1 P285S clone 1531, 1.4; with OR1A1 R128H clone 1528, 1.35; in the assay on OR1A1 V233M clone 1287 it was 2.19 and 1.2; in the assay with OR1A1 V233M clone 1530, 1.66; in the assay on OR1A1 clone 1529, 1.17. For the same compound, the odorant receptor activation with OR1A2 clone 1158 amounted to 1.23; with OR1C1 clone 1044 it was 1.16; in the assay on OR1D2 clone 1376, 1.47; with OR1D5 clone 1289, 1.34; with OR1D5 clone 1692, 1.16; in the assay on OR1E1 clone 1257, 1.32. Also, the odorant receptor activation in the assay with OR1E1 clone 1546 came to 1.48; in the assay with OR1E2 C27R clone 1447, 1.32; with OR1E2 clone 1517, 1.58; in the assay on OR1F1 F75S clone 1281 it was 0.959; with OR1F12 clone 1694 it was 0.87; with OR1G1 clone 1488 it was 0.832. Further, the results for the odorant receptor activation (in [1]; with OR1J1 clone 1696) were 1.01 and 0.862, respectively.

Take `C=CC(C)(O)CCC=C(C)C` (stereo not given) [linalool]: the odorant receptor activation was 1.54 with OR14L1 clone 1029; 1.35 in the assay with OR1A1 P285S clone 1531; 1.23 in the assay on OR1A1 R128H clone 1528; 2.61 and 1.91 in the assay on OR1A1 V233M clone 1287; 1.43 in the assay with OR1A1 V233M clone 1530; 1.28 in the assay with OR1A1 clone 1529. Also, the odorant receptor activation in the assay on OR1A2 clone 1158 came to 1.12; in the assay with OR1C1 clone 1044 it was 2.67; with OR1D2 clone 1376 it was 1.42; with OR1D5 clone 1289, 0.964; with OR1D5 clone 1692, 0.856; in the assay on OR1E1 clone 1257, 0.814. Besides, the odorant receptor activation in the assay with OR1E1 clone 1546 is 0.857; in the assay with OR1E2 C27R clone 1447 it was 1.15; in the assay on OR1E2 clone 1517, 1.21; in the assay on OR1F1 F75S clone 1281, 0.812; with OR1F12 clone 1694, 1.04; with OR1G1 clone 1488 it was 1.1. Also, the odorant receptor activation in assay [1] came to 1.26; in the assay with OR1J1 clone 1696, 0.72.

Regarding `CCCCCCCCOC(C)=O` [octyl acetate], the odorant receptor activation was 1.12 with OR14L1 clone 1029; 1.21 in the assay on OR1A1 P285S clone 1531; 1.15 in the assay on OR1A1 R128H clone 1528; 0.509 and 1.5 in the assay on OR1A1 V233M clone 1287; 1.11 with OR1A1 V233M clone 1530; 1.06 with OR1A1 clone 1529. Besides, the odorant receptor activation with OR1A2 clone 1158 amounted to 0.954; in the assay with OR1C1 clone 1044, 0.947; with OR1D2 clone 1376, 1.24; in the assay on OR1D5 clone 1289, 1.18; in the assay with OR1D5 clone 1692, 0.692; in the assay on OR1E1 clone 1257, 1.09. The odorant receptor activation was 0.958 in the assay with OR1E1 clone 1546; 1.17 with OR1E2 C27R clone 1447; 0.873 in the assay with OR1E2 clone 1517; 1.11 in the assay with OR1F1 F75S clone 1281; 0.73 in the assay with OR1F12 clone 1694; 0.967 with OR1G1 clone 1488. In addition, the odorant receptor activation was found to be 0.803 in assay [1] and 0.853 in the assay with OR1J1 clone 1696.
